Results are given in words; binding and its absence hold for the method and conditions named. Some binding calls cover weakened binding; strength is not graded here.
Target: Frizzled 5 (FZD5) on endometrial mesenchymal stem-like cells (human (endogenous in eMSC)) (UniProt Q13467)
Assay: flow cytometry on cells; Alexa Fluor 488-labelled rhWNT5A on eMSC, 2 h at 4°C in the dark; cells transfected the day before with siCtrl or siFZD5 (relative fluorescent intensity siCtrl 1.03 ± 0.09 fold, siFZD5 0.75 ± 0.03 fold, n = 7); only the binder purified

Chains of the proteins cited; added tags and fusions are not shown. Residues count along the entry.
UniProt Q13467, residues 27-585: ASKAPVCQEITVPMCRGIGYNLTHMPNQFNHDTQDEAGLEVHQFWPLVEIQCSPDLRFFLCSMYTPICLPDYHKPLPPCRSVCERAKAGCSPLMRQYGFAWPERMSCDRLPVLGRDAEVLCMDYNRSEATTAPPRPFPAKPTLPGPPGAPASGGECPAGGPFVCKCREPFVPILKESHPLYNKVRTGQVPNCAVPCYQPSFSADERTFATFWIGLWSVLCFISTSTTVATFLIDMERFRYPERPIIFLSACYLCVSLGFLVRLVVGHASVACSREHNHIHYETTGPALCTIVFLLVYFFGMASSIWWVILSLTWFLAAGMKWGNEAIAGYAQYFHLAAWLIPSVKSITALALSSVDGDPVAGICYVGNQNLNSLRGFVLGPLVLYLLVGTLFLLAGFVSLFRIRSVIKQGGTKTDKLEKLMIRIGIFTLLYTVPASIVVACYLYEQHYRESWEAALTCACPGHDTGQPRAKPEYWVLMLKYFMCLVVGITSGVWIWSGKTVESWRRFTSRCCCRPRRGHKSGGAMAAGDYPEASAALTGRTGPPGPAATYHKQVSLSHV

B1: Human recombinant WNT5A protein (ligand, UniProt P41221 62-380)
chain: IIGAQPLCSQLAGLSQGQKKLCHLYQDHMQYIGEGAKTGIKECQYQFRHRRWNCSTVDNTSVFGRVMQIGSRETAFTYAVSAAGVVNAMSRACREGELSTCGCSRAARPKDLPRDWLWGGCGDNIDYGYRFAKEFVDARERERIHAKGSYESARILMNLHNNEAGRRTVYNLADVACKCHGVSGSCSLKTCWLQLADFRKVGDALKEKYDSAAAMRLNSRGKLVQVNSRFNSPTTQDLVYIDPSPDYCVRNESTGSLGTQGRLCNKTSEGMDGCELMCCGRGYDQFKTVQTERCHCKFHWCCYVKCKKCTEIVDQFVCK
modifications: Alexa Fluor 488 dye (Alexa Fluor 488 microscale protein labeling kit)
B1 was tested, and the binding was “binds”.
